Source: patent US20250101497
Where a protein sequence is shown, tags need not be part of it. The exact form of at least one protein or probe is not confirmed.

Test system: T1, phiFa_44 RNA polymerase (QKE11339.1) (Thermus phage phiFa)
T1 sequence: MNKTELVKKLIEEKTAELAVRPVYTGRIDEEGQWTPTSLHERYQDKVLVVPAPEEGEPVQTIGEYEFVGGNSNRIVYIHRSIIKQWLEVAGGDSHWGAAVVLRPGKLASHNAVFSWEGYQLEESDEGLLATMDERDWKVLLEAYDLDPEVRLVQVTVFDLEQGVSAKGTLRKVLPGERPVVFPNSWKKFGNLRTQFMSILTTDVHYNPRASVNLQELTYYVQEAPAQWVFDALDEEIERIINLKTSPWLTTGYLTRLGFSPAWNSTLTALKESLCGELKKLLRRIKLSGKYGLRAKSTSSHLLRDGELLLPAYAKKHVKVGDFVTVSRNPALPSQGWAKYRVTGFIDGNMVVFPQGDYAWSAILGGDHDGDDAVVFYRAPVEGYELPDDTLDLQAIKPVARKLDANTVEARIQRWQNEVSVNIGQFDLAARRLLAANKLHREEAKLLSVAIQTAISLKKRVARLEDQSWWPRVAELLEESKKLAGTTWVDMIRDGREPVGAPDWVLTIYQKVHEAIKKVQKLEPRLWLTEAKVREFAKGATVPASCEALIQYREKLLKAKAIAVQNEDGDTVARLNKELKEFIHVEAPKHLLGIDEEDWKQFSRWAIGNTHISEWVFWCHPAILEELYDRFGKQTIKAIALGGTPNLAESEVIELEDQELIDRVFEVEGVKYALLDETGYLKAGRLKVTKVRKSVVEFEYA
Experiment: activity assay
Details: purified recombinant protein

Sequence: AATTCTAATACGACTCACTATAGTATCCGGTGGGCCAGCCAGCGTACCGTCCTCGAGGCTGTGGATTGCGCGGCTTCCCGCCCGCAGCCGCGCATCTAGTCCTCCCGCCACCACCACCTCTGCAGGAAGAGGTGGGCGAAGAGACGAAGAGAGGTGAAAGAGAGAAGAGGCGAAGGCCGGGTGTCCCGCGCCCGGCTCGCCTTACGGTGCCACGCCACCCCGCTCGCGCAAGGCTCCGCGCGGAGCGCGGCCCCTTCGGGCTTACGGCCTTGCGCTCGCGGGGACCCCGGCGTGGCAGGGCTCCGCCCCGAGCCGGGCGCGTAGAGGACACCCGGCTCAAGGAGGTCAAAGATGAACAAGACCGAACTTGTCAAAAAGTTGATTGAAGAGAAGACGGCGGAGTTGGCTGTTAGGCCGGTGTACACCGGTCGAATCGACGAAGAAGGTCAGTGGACTCCGACTTCTCTG (double strand) [phiFa phage dsDNA template]
- activity on this sequence (in vitro transcription with rNTPs gives RNA product, 1x isothermal amplification buffer, 65 C): active

Sequence: CGATGGCCGTAGATAAGGCGCCCGGGGACGACCACGTCAAGGCGCAGTTC [Cy3 ssDNA template]
- activity on this sequence (IVT forms RNA:DNA duplex, template band shift abolished by RNase H, 2 mM MgCl2, 35 mM NaCl, pH 8.8, 65 C, label: 5' Cy3, single-stranded DNA): active

Sequence: GCGCTCCAAAAGCAGGGGCGGCAAGTCCAGTCTCCAGACTTGCCGCCGAGTGTACCTGCTTGCTACAGCCCTAATTATACCACAAACGCC [ssDNA template A]
- activity on this sequence (IVT gives clear ssRNA transcript of about 75-80 nt, 250 nM protein, 100 nM template, 65 C, single-stranded DNA): active
